The exact form of at least one protein or probe is not confirmed. Tags and fusion partners may be left off the protein sequences shown.
Target: T1, UvrA WT (UniProt P0A698)
T1 sequence (looked up, limits assumed): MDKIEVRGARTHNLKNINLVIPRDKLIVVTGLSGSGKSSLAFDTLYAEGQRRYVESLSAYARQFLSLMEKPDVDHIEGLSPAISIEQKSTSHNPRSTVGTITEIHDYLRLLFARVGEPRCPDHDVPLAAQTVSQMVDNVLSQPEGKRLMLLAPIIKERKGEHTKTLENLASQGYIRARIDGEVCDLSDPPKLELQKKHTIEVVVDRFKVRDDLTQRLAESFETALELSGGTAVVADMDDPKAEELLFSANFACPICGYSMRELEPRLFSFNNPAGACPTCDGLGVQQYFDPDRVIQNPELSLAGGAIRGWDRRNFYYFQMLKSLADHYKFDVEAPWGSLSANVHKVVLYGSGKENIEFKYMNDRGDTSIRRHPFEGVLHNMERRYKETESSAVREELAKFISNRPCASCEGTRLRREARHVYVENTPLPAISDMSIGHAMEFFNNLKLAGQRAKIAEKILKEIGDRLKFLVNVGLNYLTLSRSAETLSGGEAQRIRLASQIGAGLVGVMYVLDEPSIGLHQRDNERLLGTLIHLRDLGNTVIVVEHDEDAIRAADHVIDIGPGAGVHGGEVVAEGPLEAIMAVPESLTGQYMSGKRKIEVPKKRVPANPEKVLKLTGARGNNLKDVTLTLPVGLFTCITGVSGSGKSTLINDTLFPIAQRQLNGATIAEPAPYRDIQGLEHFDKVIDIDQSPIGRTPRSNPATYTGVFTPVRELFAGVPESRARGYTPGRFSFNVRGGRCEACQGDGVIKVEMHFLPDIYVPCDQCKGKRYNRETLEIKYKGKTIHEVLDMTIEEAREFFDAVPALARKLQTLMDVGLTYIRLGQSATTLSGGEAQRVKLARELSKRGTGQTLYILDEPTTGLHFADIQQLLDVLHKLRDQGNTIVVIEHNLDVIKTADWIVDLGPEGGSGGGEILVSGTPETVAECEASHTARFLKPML
Experiment: EMSA
Details: 2 mM ATP, 1 nM 32P-labeled 50 bp duplex, 20 min at 37°C, recombinant protein, protein details: N-terminal His, label: 32P, letters put together from the description

Sequence: CTAGGATCGGATAGCGCATGACAGTGACTGGATCGACAGCGTCGTATGAG (double strand) [50 bp undamaged duplex]
- Kd: 43 nM
